Assay results: paper PMC12804605
No constants are given. Whether binding was seen depends on the method and setting. Binding seen in cells or lysates may run through a third protein. Here binding means that the protein was enriched with, or labelled near, the bait; the list need not be complete. Each block holds one binder with its values, some of them ahead of it.

Target: T1, PGC-1α, endogenous in mouse cells (mouse (endogenous in ovarian granulosa cells and in NIH/3T3)) (UniProt O70343)
T1 sequence: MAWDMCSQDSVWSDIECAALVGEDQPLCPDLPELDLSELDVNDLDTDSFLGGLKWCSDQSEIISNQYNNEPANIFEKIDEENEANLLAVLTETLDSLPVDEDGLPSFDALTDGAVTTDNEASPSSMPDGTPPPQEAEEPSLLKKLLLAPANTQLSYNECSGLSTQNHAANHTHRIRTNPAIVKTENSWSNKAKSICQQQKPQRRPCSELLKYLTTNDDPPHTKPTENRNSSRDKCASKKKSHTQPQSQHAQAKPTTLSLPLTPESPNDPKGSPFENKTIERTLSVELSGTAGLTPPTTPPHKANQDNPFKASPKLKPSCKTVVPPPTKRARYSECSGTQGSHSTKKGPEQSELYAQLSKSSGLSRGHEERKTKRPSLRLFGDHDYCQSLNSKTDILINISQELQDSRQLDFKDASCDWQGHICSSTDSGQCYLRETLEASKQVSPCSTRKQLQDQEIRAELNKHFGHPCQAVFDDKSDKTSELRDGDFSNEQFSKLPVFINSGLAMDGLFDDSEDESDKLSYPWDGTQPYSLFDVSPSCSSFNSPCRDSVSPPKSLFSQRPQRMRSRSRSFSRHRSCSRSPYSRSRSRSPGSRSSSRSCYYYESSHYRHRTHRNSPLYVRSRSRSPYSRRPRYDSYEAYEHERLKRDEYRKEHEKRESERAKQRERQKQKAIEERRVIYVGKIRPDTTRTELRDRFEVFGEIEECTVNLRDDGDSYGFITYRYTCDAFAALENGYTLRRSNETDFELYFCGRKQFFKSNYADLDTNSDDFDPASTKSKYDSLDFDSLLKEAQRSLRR
Assay: affinity purification with mass spectrometry; IP with PGC-1α-specific antibodies from NIH/3T3 cells, HPLC-MS/MS

- binding: binds
B1: ACAT1, endogenous in NIH/3T3 cells (enzyme, UniProt Q8QZT1 31-424)
chain: ASKPTLNEVVIVSAIRTPIGSFLGSLASQPATKLGTAAIQGAIEKAGIPKEEVKEVYMGNVIQGGEGQAPTRQATLGAGLPISTPCTTVNKVCASGMKAIMMASQSLMCGHQDVMVAGGMESMSNVPYVMSRGATPYGGVKLEDLIVKDGLTDVYNKIHMGNCAENTAKKMNISRQEQDTYALSSYTRSKEAWDAGKFASEITPITISVKGKPDVVVKEDEEYKRVDFSKVPKLKTVFQKENGTITAANASTLNDGAAALVLMTAEAAQRLNVKPLARIAAFADAAVDPIDFPLAPAYAVPKVLKYAGLKKEDIAMWEVNEAFSVVVLANIKMLEIDPQKVNIHGGAVSLGHPIGMSGARIVVHMAHALKPGEFGLASICNGGGGASALLIEKL

- binding: binds
B2: DLAT, endogenous in NIH/3T3 cells (enzyme, UniProt Q8BMF4 86-642)
chain: SLPPHQKVPLPSLSPTMQAGTIARWEKKEGEKISEGDLIAEVETDKATVGFESLEECYMAKILVPEGTRDVPVGSIICITVEKPQDIEAFKNYTLDLAAAAAPQAAPAAAPAPAAAPAAPSASAPGSSYPTHMQIVLPALSPTMTMGTVQRWEKKVGEKLSEGDLLAEIETDKATIGFEVQEEGYLAKILVPEGTRDVPLGAPLCIIVEKQEDIAAFADYRPTEVTSLKPQAAPPAPPPVAAVPPTPQPVAPTPSAAPAGPKGRVFVSPLAKKLAAEKGIDLTQVKGTGPEGRIIKKDIDSFVPSKAAPAAAAAMAPPGPRVAPAPAGVFTDIPISNIRRVIAQRLMQSKQTIPHYYLSVDVNMGEVLLVRKELNKMLEGKGKISVNDFIIKASALACLKVPEANSSWMDTVIRQNHVVDVSVAVSTPAGLITPIVFNAHIKGLETIASDVVSLASKAREGKLQPHEFQGGTFTISNLGMFGIKNFSAIINPPQACILAIGASEDKLIPADNEKGFDVASVMSVTLSCDHRVVDGAVGAQWLAEFKKYLEKPITMLL
